In article PMC10368568:
These are yes or no findings as the source states them, for the method shown. Binding seen in cells or lysates may run through a third protein. Some binding calls cover weakened binding; strength is not graded here.

Chains of the proteins cited; added tags and fusions are not shown.
UniProt P15337: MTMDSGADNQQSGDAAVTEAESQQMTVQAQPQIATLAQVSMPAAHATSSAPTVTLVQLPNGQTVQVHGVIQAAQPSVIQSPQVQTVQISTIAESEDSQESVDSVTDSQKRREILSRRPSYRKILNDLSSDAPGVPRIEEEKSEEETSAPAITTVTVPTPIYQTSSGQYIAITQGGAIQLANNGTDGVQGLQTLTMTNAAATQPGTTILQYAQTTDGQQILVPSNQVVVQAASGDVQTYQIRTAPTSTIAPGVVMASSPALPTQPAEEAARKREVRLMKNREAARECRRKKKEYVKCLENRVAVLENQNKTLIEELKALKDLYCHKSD

B1: Jacob (protein, UniProt Q9EPI6 1-532)
chain: MGAAASRRRALRSEAMSSVAAKVRAARAFGEYLSQSHPENRNGADHLLADAYSGHEGSPEMQPAPHNKRRLSLVSNGRYEGSISDEAVSGKTATEGPQPRVYTISREPALLPGSEAEAIELAVVKGRRQRERHPHHHSQPLRASPGSSREDISRPCQSWAGSRQGSKECPGCAKLVPGPSPRAFGLEQPPLPEASGRHKKLERMYSVDGVSDDVPIRTWFPKENPFSFQTATTTMQAISVFRGYAERKRRKRENDSASVIQRNFRKHLRMVGSRRVKAQTFAERRERSFSRSWSDPTPMKADTSHDSRDSSDLQSSHCTLDEACEDLDWDTEKGLEATACDTEGFLPPKVMLISSKVPKAEYIPTIIRRDDPSIIPILYDHEHATFEDILEEIEKKLNIYHKGAKIWKMLIFCQGGPGHLYLLKNKVATFAKVEKEEDMIHFWKRLSRLMSKVNPEPNVIHIMGCYILGNPNGEKLFQNLRTLMTPYKVTFESPLELSAQGKQMIETYFDFRLYRLWKSRQHSKLLDFDDVL
B2: pS180-Jacob (protein, UniProt Q9EPI6 1-532)
chain: B1 chain
modifications: phosphoserine at 180

Assays:
[1] = target: T1, LaminB1 (rat (endogenous in hippocampal neurons)) (UniProt P70615); assay: proximity ligation; Duolink PLA on fixed cultured rat hippocampal neurons (DIV15-16), endogenous proteins, rabbit and mouse primary antibodies; untreated or treated with ionomycin (1 uM, 1 min), NMDA (50 uM, 5 min) or 4AP/bicuculline (2.5 mM/50 uM, 5 min)
T1 sequence: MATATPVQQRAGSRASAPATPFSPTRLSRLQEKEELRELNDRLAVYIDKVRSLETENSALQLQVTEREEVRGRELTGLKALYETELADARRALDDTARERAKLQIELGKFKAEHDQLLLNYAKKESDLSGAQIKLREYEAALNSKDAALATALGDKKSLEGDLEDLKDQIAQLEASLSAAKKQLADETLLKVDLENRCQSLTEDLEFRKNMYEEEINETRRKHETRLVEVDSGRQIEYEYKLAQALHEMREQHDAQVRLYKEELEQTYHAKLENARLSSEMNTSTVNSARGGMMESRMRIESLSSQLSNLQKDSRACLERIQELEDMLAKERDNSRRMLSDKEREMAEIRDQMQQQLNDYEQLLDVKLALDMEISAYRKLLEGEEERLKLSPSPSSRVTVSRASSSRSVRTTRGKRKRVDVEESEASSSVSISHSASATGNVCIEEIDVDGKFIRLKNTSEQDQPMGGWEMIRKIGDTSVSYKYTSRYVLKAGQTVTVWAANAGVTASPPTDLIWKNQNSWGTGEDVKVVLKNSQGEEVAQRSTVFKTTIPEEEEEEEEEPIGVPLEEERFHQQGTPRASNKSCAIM

[2] = target: cAMP-responsive element-binding protein (CREB) (rat (endogenous in hippocampal neurons)) (UniProt P15337); assay: proximity ligation; Duolink PLA on 40 um sections of acute rat hippocampal slices, CA1 pyramidal neurons, endogenous proteins; untreated or after bath NMDA (100 uM, 5 min) or theta burst stimulation (fixed 3 min after TBS)
[3] = target: T1, LaminB1 (rat (endogenous in hippocampal neurons)); assay: as above
[4] = target: cAMP-responsive element-binding protein (CREB) (rat (endogenous in hippocampal neurons)) (UniProt P15337); assay: proximity ligation; Duolink PLA on fixed cultured rat hippocampal neurons (DIV15-16), endogenous proteins, rabbit and mouse primary antibodies; untreated or treated with ionomycin (1 uM, 1 min), NMDA (50 uM, 5 min) or 4AP/bicuculline (2.5 mM/50 uM, 5 min)

Binder	binding [1]	binding [2]	binding [3]	binding [4]
B1	binds	binds	binds	–
B2	–	binds	–	binds
